Laboratory results taken from patent US8552163B2, “Liver-targeting agents and their synthesis” (Johns Hopkins University, priority 2009, dated 2013).
At least one structure is not confirmed: it was looked up by name or label, or the drawing left a doubt.

Biological target: T1, ASGPR (Mus musculus, UniProt P24721+P34927)
T1 construct: host or cells: murine hepatocytes (purchased, plated in 24-well plates)
T1 sequence (P34927 1-284): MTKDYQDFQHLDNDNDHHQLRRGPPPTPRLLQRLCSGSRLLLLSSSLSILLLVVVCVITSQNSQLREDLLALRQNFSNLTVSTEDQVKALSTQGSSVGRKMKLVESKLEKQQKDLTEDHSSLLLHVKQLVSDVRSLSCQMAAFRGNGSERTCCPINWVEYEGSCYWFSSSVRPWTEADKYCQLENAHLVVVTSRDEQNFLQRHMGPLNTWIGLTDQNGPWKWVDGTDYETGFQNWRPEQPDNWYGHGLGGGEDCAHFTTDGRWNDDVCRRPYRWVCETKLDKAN
T1 sequence (P24721 1-301): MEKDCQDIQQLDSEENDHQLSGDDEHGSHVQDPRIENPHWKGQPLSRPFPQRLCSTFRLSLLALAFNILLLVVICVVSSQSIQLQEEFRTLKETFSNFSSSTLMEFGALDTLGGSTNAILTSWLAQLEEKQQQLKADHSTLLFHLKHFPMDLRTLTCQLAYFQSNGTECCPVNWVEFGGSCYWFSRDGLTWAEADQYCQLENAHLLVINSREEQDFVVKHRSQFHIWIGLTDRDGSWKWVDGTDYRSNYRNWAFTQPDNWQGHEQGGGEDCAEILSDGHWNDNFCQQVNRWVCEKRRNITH
Test: Competitive binding assay with Eu-ASOR on murine hepatocyte (time-resolved fluorometry)
Conditions: competition with 10 nM Eu-ASOR, 5 mM calcium chloride, 1 hr in the cold, read-out: IC50 (concentration of 50% inhibition), binding strength of saccharide chains and murine hepatocyte
Procedure: With Eu-asialo-orosomucoid (Eu-ASOR) as a reference material, the binding affinity of the multivalent glyco-ligands (DCM-Lys(ah-GalNAc)3, DCM-Lys(GahGalNAc)3, DCM-Lys(ahLac)3, AHA-Asp[DCM-Lys(ahLac)3]2) and murine hepatocyte can be determined by competitive assay to obtain IC50 (concentration of 50% inhibition), and the lower the IC50 is, the higher the binding affinity. The murine hepatocyte (Lonza Biotechnology Company, Walkersville, Md.) is plated in a 24-well plate in advance, and the reaction occurs in each well, into which (i) Eu-ASOR 10 nM (ii) hepatocyte basic medium with 5 mM calcium chloride, and (iii) five different concentrations of multivalent ligands of 1 μM-0.8 nM are added. After culturing with shaking for 1 hr in the cold, the unbound ligands are removed by washing with the hepatocyte basic medium containing calcium chloride. Time-resolved fluorometry (TRF) is performed, using an enhancement solution (15 μM β-naphthoyl trifluoroacetone, 50 μM tri-n-octyl-phosphine oxide, 0.1% triton X-100 in 0.1 M acetic acid, titrated with potassium hydrogen phthalate to pH 3.2). The enhancement solution reacts with Eu^3+ to form an Eu chelate, which can emit at 615 nm when excited at 340 nm. […]

| SMILES | IC50 [µM] |
| --- | --- |
| CC(=O)N[C@H]1[C@H](OCCCCCCNC(=O)CNC(=O)C[C@H](NC(=O)C[C@H](NC(=O)[C@@H](N)Cc2ccc(O)cc2)C(=O)NCC(=O)NCCCCCCO[C@@H]2O[C@H](CO)[C@H](O)[C@H](O)[C@H]2NC(C)=O)C(=O)NCC(=O)NCCCCCCO[C@@H]2O[C@H](CO)[C@H](O)[C@H](O)[C@H]2NC(C)=O)O[C@H](CO)[C@H](O)[C@@H]1O [YDD(GahGalNAc)3] | 0.01 |
| CC(=O)N[C@H]1[C@H](OCCCCCCNC(=O)CC[C@H](NC(=O)CC[C@H](NC(=O)[C@@H](N)Cc2ccc(O)cc2)C(=O)NCCCCCCO[C@@H]2O[C@H](CO)[C@H](O)[C@H](O)[C@H]2NC(C)=O)C(=O)NCCCCCCO[C@@H]2O[C@H](CO)[C@H](O)[C@H](O)[C@H]2NC(C)=O)O[C@H](CO)[C@H](O)[C@@H]1O [YEE(ahGalNAc)3] | 0.01 |
